Results are given in words; binding and its absence hold for the method and conditions named. Some binding calls cover weakened binding; strength is not graded here.

Sequences of proteins named here, by UniProt entry; tags and fusion partners are left off.
UniProt P24385: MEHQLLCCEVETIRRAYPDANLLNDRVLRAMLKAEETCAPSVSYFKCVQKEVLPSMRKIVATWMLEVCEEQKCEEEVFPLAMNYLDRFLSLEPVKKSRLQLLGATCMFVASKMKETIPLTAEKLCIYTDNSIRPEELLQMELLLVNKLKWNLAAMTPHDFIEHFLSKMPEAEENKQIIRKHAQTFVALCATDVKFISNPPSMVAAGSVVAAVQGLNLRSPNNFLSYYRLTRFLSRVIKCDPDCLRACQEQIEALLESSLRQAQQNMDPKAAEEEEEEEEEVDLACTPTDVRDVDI
UniProt P11802: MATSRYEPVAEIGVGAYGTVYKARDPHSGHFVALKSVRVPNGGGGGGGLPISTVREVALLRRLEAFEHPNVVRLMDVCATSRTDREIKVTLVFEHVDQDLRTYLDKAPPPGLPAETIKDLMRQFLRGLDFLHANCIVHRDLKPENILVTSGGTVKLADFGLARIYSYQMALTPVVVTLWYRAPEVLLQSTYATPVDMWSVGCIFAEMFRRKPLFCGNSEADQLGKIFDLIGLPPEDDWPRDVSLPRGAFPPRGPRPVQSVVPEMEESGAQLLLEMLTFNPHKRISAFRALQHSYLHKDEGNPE

Assay [1] deals with cyclin D1 labelled with [35S]methionine, translated in rabbit reticulocyte lysate (human) (UniProt P24385). Kind of assay: peptide precipitation assay (data not shown).
For assay [2], the target named is Cdk4 labelled with [35S]methionine, translated in rabbit reticulocyte lysate (human) (UniProt P11802). Kind of assay: peptide precipitation assay (data not shown).
In assay [3] the target is cyclin D1 labelled with [35S]methionine, translated in rabbit reticulocyte lysate (human) (UniProt P24385). In words: peptide precipitation assay.
Assay [4] shares this target. In words: peptide precipitation of 35S-cyclin D1 from reticulocyte lysate.
The target in assay [5] is Cdk4 labelled with [35S]methionine, translated in rabbit reticulocyte lysate (human) (UniProt P11802). In words: peptide precipitation assay.
For assay [6] the target is unchanged. In words: peptide precipitation of 35S-Cdk4 from reticulocyte lysate.

B1: peptide 10 mutant with I of the motif RRLIF changed to A (peptide)
peptide: KRRQTSMTDFYHSKRRLAFSSGSG
modifications: Biotin-SGSG spacer at the C-terminus; free N-terminus
For B1, the binding entry in assay [1] and in assay [2] was “binds” throughout.

B2: peptide 2 (residues 16-35 of p21^WAF1) (peptide)
peptide: KACRRLFGPVDSEQLSRDCDSGSG
modifications: Biotin-SGSG spacer at the C-terminus; free N-terminus
B2: the binding result in assay [3] and in assay [4] was “binds” throughout.

B3: peptide 10 mutant with the second R of the motif RRLIF changed to A (peptide)
peptide: KRRQTSMTDFYHSKRALIFSSGSG
modifications: Biotin-SGSG spacer at the C-terminus; free N-terminus
Consider B3, for which the binding entry in assay [1] and in assay [2] was “binds” in each case.

B4: peptide 11 (extreme C-terminal peptide of p21^WAF1) (peptide)
peptide: TSMTDFYHSKRRLIFSKRKPSGSG
modifications: Biotin-SGSG spacer at the C-terminus; free N-terminus
Take B4: the binding entry in assay [3], in assay [5], in assay [4] and in assay [6] was “binds” throughout.

B5: peptide 10 mutant with R-A at residue 15 of peptide 10 (residue 155 of the full length protein) (peptide)
peptide: KRRQTSMTDFYHSKARLIFSSGSG
modifications: Biotin-SGSG spacer at the C-terminus; free N-terminus
On to B5, for which the binding entry in assay [1] and in assay [2] was “binds” each time.

B6: peptide 4 (residues 46-65 of p21^WAF1) (peptide)
peptide: RERWNFDFVTETPLEGDFAWSGSG
modifications: Biotin-SGSG spacer at the C-terminus; free N-terminus
For the molecule B6, the binding result in assay [5] and in assay [6] was “binds” each time.

The values above are taken from patent publication US6962792B1, “Methods and means for inhibition of Cdk4 activity” (Cyclacel Limited, priority 1996, dated 2005).
